US20090263341A1, “SOFT ANTICHOLINERGIC ESTERS” (priority 2005, published 2009)

Test system: electrically stimulated guinea pig tracheal strips
Assay: Time course of anticholinergic effect in electrically stimulated guinea pig trachea

SMILES: CC(C)[N+]1(C)[C@@H]2CC[C@H]1CC(OC(=O)C(CO)c1ccccc1)C2.[Br-] (stereo partly shown) [Ipratropium Br, ipratropium bromide]
- t1/5 offset: 6.5 min
